Source: PubChem BioAssay AID1224830 (NIAID, 2016)
The whole screen tested about 18,000 reagents; this is a part drawn at random. Over the whole deposit, about 2,900 (16%) got an active call. 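Calls are made per well; low scores hint the gene aids the LPS response, high scores that it dampens it.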 A number with no mark means an inactive call. Repeated entries: four replicate wells of each siRNA pool.

Assay: 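Genes whose knock-down alters the TNF-alpha reporter response to LPS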 (primary screen)
Cell system: human THP-1 monocytic leukaemia cells, TNF dual-luciferase reporter clone, PMA-differentiated to macrophage-like cells
Reagent: siRNA pool against human genes, 50 nM
Timing: LPS for 4 h, given about 3 days after siRNA transfection
Treatment: bacterial LPS (TLR4 ligand), 10 ng/ml
Measured: 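TNF firefly reporter luminescence divided by renilla, normalised to the plate median, then turned into a robust z-score for each replicate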
Direction: TNF reporter robust z-score: higher = stronger TNF reporter response to LPS
Active means: 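a well is active when its z-score exceeds 2.8 or falls below -1.5; control wells carry no call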

For RHBG (Rh family B glycoprotein) the deposit lists TNF reporter robust z-score 1.79.
With knock-down of RHBG (Rh family B glycoprotein), the record shows TNF reporter robust z-score 0.83.
Depletion of RHBG (Rh family B glycoprotein) resulted in: TNF reporter robust z-score 1.53.
RHBG (Rh family B glycoprotein) scored TNF reporter robust z-score 0.12.
CETN1 (centrin 1) scored TNF reporter robust z-score 0.45.
CETN1 (centrin 1) showed TNF reporter robust z-score 0.03.
After knock-down of CETN1 (centrin 1), the screen gave TNF reporter robust z-score -0.5.
For CETN1 (centrin 1) the deposit lists TNF reporter robust z-score 1.54.
Against TIPIN (TIMELESS interacting protein) the deposit lists TNF reporter robust z-score -1.49.
After knock-down of TIPIN (TIMELESS interacting protein), the record shows TNF reporter robust z-score -0.53.
Knock-down of TIPIN (TIMELESS interacting protein) gave: TNF reporter robust z-score -1.45.
Silencing of TIPIN (TIMELESS interacting protein) resulted in: TNF reporter robust z-score -0.74.
Silencing of EVPL (envoplakin) came out at: TNF reporter robust z-score -0.68.
EVPL (envoplakin) gave TNF reporter robust z-score -0.09.
EVPL (envoplakin) gave TNF reporter robust z-score -0.7.
Knock-down of EVPL (envoplakin) came out at: TNF reporter robust z-score -0.25.
Knock-down of LIN37 (lin-37 DREAM MuvB core complex component) gave: TNF reporter robust z-score -0.13.
After knock-down of LIN37 (lin-37 DREAM MuvB core complex component) the results were TNF reporter robust z-score -0.01.
With knock-down of LIN37 (lin-37 DREAM MuvB core complex component) the results were TNF reporter robust z-score 1.78.
Against LIN37 (lin-37 DREAM MuvB core complex component) the deposit lists TNF reporter robust z-score -0.17.
ZNF354B (zinc finger protein 354B) gave TNF reporter robust z-score -1.16.
For ZNF354B (zinc finger protein 354B), the values are TNF reporter robust z-score -1.
After knock-down of ZNF354B (zinc finger protein 354B), the screen gave TNF reporter robust z-score -1.24.
For ZNF354B (zinc finger protein 354B) the deposit lists TNF reporter robust z-score -1.19.
For PSMA6 (proteasome 20S subunit alpha 6), the values are TNF reporter robust z-score -1.74 (active).
With knock-down of PSMA6 (proteasome 20S subunit alpha 6) the results were TNF reporter robust z-score -1.95 (active).
PSMA6 (proteasome 20S subunit alpha 6) gave TNF reporter robust z-score -1.93 (active).
Against PSMA6 (proteasome 20S subunit alpha 6), the entry reads TNF reporter robust z-score -1.8 (active).
For PDZRN4 (PDZ domain containing ring finger 4), the entry reads TNF reporter robust z-score 4.14 (active).
Silencing of PDZRN4 (PDZ domain containing ring finger 4) resulted in: TNF reporter robust z-score 1.21.
PDZRN4 (PDZ domain containing ring finger 4) showed TNF reporter robust z-score 3.19 (active).
Against PDZRN4 (PDZ domain containing ring finger 4), the values are TNF reporter robust z-score 1.09.
For ACKR3 (atypical chemokine receptor 3) the deposit lists TNF reporter robust z-score 0.44.
With knock-down of ACKR3 (atypical chemokine receptor 3), the screen gave TNF reporter robust z-score 0.14.
ACKR3 (atypical chemokine receptor 3) scored TNF reporter robust z-score -0.19.
Against ACKR3 (atypical chemokine receptor 3), the entry reads TNF reporter robust z-score -0.63.
PSG7 (pregnancy specific beta-1-glycoprotein 7) gave TNF reporter robust z-score -0.27.
For PSG7 (pregnancy specific beta-1-glycoprotein 7) the deposit lists TNF reporter robust z-score -0.05.
PSG7 (pregnancy specific beta-1-glycoprotein 7) showed TNF reporter robust z-score 1.62.
Against PSG7 (pregnancy specific beta-1-glycoprotein 7), the values are TNF reporter robust z-score -0.23.
After knock-down of MTFP1 (mitochondrial fission process 1) the results were TNF reporter robust z-score -0.14.
Silencing of MTFP1 (mitochondrial fission process 1) resulted in: TNF reporter robust z-score 0.52.
Against MTFP1 (mitochondrial fission process 1) the deposit lists TNF reporter robust z-score 0.85.
MTFP1 (mitochondrial fission process 1) showed TNF reporter robust z-score 1.13.
THEMIS (thymocyte selection associated) showed TNF reporter robust z-score 1.06.
Depletion of THEMIS (thymocyte selection associated) came out at: TNF reporter robust z-score 1.26.
For THEMIS (thymocyte selection associated), the entry reads TNF reporter robust z-score 0.91.
Depletion of THEMIS (thymocyte selection associated) came out at: TNF reporter robust z-score 2.06.
For PRPF19 (pre-mRNA processing factor 19) the deposit lists TNF reporter robust z-score 0.46.
PRPF19 (pre-mRNA processing factor 19) scored TNF reporter robust z-score -1.19.
PRPF19 (pre-mRNA processing factor 19) gave TNF reporter robust z-score -0.78.
SUPT5H (SPT5 homolog, DSIF elongation factor subunit) showed TNF reporter robust z-score 0.23.
SUPT5H (SPT5 homolog, DSIF elongation factor subunit) gave TNF reporter robust z-score 1.89.
After knock-down of SUPT5H (SPT5 homolog, DSIF elongation factor subunit) the results were TNF reporter robust z-score 2.58.
With knock-down of SUPT5H (SPT5 homolog, DSIF elongation factor subunit) the results were TNF reporter robust z-score 4.59 (active).
PTF1A (pancreas associated transcription factor 1a) scored TNF reporter robust z-score -0.48.
Knock-down of PTF1A (pancreas associated transcription factor 1a) resulted in: TNF reporter robust z-score -0.57.
Against PTF1A (pancreas associated transcription factor 1a), the entry reads TNF reporter robust z-score -0.44.
Depletion of PTF1A (pancreas associated transcription factor 1a) gave: TNF reporter robust z-score -0.1.
Against TSPOAP1 (TSPO associated protein 1), the entry reads TNF reporter robust z-score -1.74 (active).
TSPOAP1 (TSPO associated protein 1) scored TNF reporter robust z-score -1.52 (active).
Silencing of TSPOAP1 (TSPO associated protein 1) gave: TNF reporter robust z-score -1.56 (active).
TSPOAP1 (TSPO associated protein 1) showed TNF reporter robust z-score -1.72 (active).
